Data as given in paper doi:10.1101/609503.
Where two headings read alike, the source gives them in different places. No constants are given. Whether binding was seen depends on the method and setting. Some entries that bind do so weakly or less than the wild type. For part of these data: Sequences can lack the tags named with a protein.

Amino acid sequences for entries named in this document (tags omitted). Residues count along the entry.
UniProt P24228, residues 21-477: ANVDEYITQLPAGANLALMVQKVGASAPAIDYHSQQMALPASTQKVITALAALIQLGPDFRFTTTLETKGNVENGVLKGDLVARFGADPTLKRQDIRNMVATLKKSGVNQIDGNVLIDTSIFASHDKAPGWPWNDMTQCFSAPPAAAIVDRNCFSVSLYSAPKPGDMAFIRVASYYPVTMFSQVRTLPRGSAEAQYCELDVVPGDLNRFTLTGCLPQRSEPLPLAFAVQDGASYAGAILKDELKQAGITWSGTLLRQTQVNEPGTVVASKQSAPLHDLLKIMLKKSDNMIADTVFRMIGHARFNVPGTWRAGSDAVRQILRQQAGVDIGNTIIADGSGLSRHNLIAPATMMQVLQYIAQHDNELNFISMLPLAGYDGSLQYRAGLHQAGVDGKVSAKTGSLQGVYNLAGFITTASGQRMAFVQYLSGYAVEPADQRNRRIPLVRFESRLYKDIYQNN
UniProt P0AFB1, residues 19-294: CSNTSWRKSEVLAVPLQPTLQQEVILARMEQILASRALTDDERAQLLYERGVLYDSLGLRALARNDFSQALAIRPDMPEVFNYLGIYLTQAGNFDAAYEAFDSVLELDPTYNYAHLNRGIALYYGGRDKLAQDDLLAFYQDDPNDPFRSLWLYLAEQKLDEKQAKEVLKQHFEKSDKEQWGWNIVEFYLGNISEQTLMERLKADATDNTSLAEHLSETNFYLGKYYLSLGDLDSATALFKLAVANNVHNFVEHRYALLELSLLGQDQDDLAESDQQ

Legend:
MepS (E. coli) [1] = target: T1, MepS (E. coli) (UniProt P0AFV4); assay: MST
T1 sequence (chain, NT647 RED-NHS dye on amines where used as the labelled partner (fl-MepS)): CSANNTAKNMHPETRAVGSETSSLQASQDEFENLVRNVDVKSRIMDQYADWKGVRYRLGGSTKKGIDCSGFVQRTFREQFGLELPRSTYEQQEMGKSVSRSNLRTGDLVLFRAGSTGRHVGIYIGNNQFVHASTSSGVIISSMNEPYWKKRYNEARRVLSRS

PBP1A (E. coli) [2] = target: T2, PBP1A (E. coli) (UniProt P02918); assay: MST
T2 sequence (chain, NT647 RED-NHS dye on amines (fl-PBP1A)): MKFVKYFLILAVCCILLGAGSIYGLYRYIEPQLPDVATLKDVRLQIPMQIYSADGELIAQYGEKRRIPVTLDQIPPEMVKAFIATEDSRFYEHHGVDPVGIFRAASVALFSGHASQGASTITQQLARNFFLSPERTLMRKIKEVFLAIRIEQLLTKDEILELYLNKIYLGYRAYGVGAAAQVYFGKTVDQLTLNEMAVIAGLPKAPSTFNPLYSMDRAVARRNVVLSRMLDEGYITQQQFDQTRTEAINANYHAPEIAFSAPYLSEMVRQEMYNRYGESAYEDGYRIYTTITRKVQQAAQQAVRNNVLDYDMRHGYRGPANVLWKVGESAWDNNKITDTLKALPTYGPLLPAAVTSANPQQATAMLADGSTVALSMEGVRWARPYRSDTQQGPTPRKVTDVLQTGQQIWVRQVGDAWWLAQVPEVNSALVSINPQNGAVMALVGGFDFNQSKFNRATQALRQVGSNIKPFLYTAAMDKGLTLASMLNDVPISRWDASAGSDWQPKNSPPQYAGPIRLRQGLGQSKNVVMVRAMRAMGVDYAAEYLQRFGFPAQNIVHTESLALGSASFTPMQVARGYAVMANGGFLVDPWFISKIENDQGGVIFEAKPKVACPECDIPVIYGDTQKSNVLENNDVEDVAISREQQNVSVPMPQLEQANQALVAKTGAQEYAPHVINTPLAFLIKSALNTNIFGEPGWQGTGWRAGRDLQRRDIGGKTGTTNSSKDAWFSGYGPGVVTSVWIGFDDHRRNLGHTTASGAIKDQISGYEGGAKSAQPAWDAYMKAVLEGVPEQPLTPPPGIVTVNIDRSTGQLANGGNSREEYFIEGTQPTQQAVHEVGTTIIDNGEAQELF

MepS (E. coli) [3] = target: T1, MepS (E. coli); assay: MST; remark: listed apart in the source
PBP1A (E. coli) [4] = target: T2, PBP1A (E. coli); assay: MST; remark: listed apart in the source
His-Slt (E. coli) = target: T3, His-Slt (E. coli) (UniProt P0AGC3); assay: pull-down
T3 sequence: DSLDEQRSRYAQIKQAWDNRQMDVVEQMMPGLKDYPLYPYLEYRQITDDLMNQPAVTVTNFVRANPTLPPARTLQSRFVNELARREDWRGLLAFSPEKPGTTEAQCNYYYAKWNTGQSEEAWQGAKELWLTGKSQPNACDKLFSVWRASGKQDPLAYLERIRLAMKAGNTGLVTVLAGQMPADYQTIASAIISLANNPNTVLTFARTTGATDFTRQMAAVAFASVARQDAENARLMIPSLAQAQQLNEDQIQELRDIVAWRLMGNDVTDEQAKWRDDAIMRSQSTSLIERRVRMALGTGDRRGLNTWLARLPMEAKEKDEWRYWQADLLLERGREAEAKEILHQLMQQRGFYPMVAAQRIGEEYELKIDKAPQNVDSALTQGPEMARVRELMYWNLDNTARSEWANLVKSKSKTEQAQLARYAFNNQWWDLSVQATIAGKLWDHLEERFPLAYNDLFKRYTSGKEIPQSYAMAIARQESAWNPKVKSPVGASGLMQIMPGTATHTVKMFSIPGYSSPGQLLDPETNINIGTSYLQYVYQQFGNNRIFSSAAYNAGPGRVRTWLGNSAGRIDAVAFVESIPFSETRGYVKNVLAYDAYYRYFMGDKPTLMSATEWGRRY

Row | binding (MepS (E. coli) [1]) | binding (PBP1A (E. coli) [2]) | binding (MepS (E. coli) [3]) | binding (PBP1A (E. coli) [4]) | binding (His-Slt (E. coli)) | Substance
1 | no binding (tested: 30 μM) | binds | no binding (tested: 50 μM) | – | – | PBP4 (native) (from UniProt P24228 21-477) (enzyme)
2 | – | no binding | – | no binding (tested: 50 μM) | – | NlpI (soluble version, residues 19-294) (from UniProt P0AFB1 19-294)
3 | – | – | – | – | no binding (tested: 1 or 2 μM) | tagless NlpI (from UniProt P0AFB1 19-294)
4 | binds | binds | – | – | – | preformed NlpI-PBP4 complex (from UniProt P0AFB1 19-294; P24228 21-477)
5 | binds | – | – | – | – | preformed NlpI-PBP7 complex (from UniProt P0AFB1 19-294; P0AFI5 26-310)
